Test results from PubChem BioAssay AID330 (DTP/NCI, 2004).
The list does not hold the whole screen: it gathers tests that were run many times, whatever their T/C, doses with no T/C, and many T/C values between a quarter and a half above the control. Further doses and runs are listed elsewhere. T/C is the treated group as % of the vehicle group. Some doses have a count of surviving animals in place of a T/C: the source holds a T/C of zero for them, seemingly a mark for toxic or unscored doses. Some survivor counts are full or nearly so, which does not show that the dose was tolerated: the source hardly ever lists a survival T/C far under the control, and the zero likely stands for such cases as well. Counts of survivors are from the toxicity check (mostly the fifth day) where no day follows; animals may have died later. Schedules are NCI's codes, read here as Q, the interval in days (D) or hours (H), X, the number of doses. Some molecules as drawn cover several salts, stereoisomers or complexes of the source; a dose is that of the sample tested. Some doses were run more than once; the results are listed from low to high. For survival time, the PubChem record calls one and a half times the control and up active, and a quarter to a half above the control has no call in these data; cut-offs in other NCI protocols can differ.

Tested on: P388 leukemia ip, CD2F1 mice, survival T/C
Assay: NCI In Vivo Anticancer Drug Screen. Data for tumor model P388 Leukemia (intraperitoneal) in CD2F1 (CDF1) mice
Settings: T/C endpoint: median survival time, higher T/C = longer survival; for T/C: schedule: Q01DX009 (ip), vehicle: water

## COc1cccc2c1C(=O)c1c(O)c3c(c(O)c1C2=O)CC(O)(/C(C)=N/NS(=O)(=O)c1ccc(C)cc1)CC3OC1CC(N)C(O)C(C)O1 (configuration not stated)
dose: 3.13 mg/kg/injection
  T/C: 139 % of control
dose: 6.25 mg/kg/injection
  T/C: 136 % of control

## CN1CCC(O)(C(=O)c2ccccc2)CC1
dose: 400.0 mg/kg/injection, schedule: Q04DX002 (ip), vehicle: saline
  survivor count: 2 of 6 and 4 of 6

## Nc1ccc(S(=O)(=O)n2c(=O)oc3cc(Br)ccc32)cc1
dose: 50.0 mg/kg/injection, schedule: Q04DX002 (ip), vehicle: Klucel (hydroxypropylcellulose) (HPC)
  survivor count: 6 of 6
dose: 200.0 mg/kg/injection, schedule: Q04DX002 (ip), vehicle: Klucel (hydroxypropylcellulose) (HPC)
  survivor count: 6 of 6

## Cc1c(O)c2ccccc2c2c1sc(NCCO)[n+]2C
dose: 120.0 mg/kg/injection, schedule: Q01DX005 (ip), vehicle: saline with Tween-80
  survivor count: 3 of 6
dose: 240.0 mg/kg/injection, schedule: Q01DX005 (ip), vehicle: saline with Tween-80
  survivor count: 0 of 6
